# Results: PubChem BioAssay AID256 (DTP/NCI, 2004)
# The list is a part of this screen's results and no random one: it gathers tests that were run many times, whatever their T/C, doses with no T/C, and many T/C values between a quarter and a half above the control. Other doses and runs of a compound stand elsewhere. T/C is the treated group as % of the vehicle group. Some entries give survivors of the animals treated and no T/C: the source holds a T/C of zero for them, seemingly a mark for toxic or unscored doses. Some survivor counts are full or nearly so, which does not show that the dose was tolerated: survival well below the control is almost never listed, so the zero probably covers shortened survival too. Survivors were counted at the toxicity check, usually on the fifth day, unless a day is given; later deaths do not show. Schedule codes are those of the source, read here as Q, the interval in days (D) or hours (H), X, the number of doses. Some molecules as drawn cover several salts, stereoisomers or complexes of the source; a dose is that of the sample tested. Marks such as (2×) count equal records among those shown. Some entries were tested several times; their values stand side by side, smallest first. Where survival is the endpoint, the PubChem record calls one and a half times the control and up active, and a quarter to a half above the control has no call in these data; cut-offs in other NCI protocols can differ. Some T/C values carry the count of animals alive at the toxicity check (mostly the fifth day); without a count, all were alive then.
# Tested on: CD2F1 mice, L1210 leukemia ip, survival T/C
# Assay: NCI In Vivo Anticancer Drug Screen. Data for tumor model L1210 Leukemia (intraperitoneal) in CD2F1 (CDF1) mice
# Conditions: higher T/C = longer survival
# How it was run: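 Each value reflects a quotient of treated over vehicle control outcomes in mice with a transplanted tumor.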
compound,measurement,setting,value
COc1cc(NS(C)(=O)=O)ccc1Nc1c2ccccc2nc2ccccc12,T/C,"T/C endpoint: mean survival time, dose: 128.0 mg/kg/injection, schedule: Q01DX001 (oral), vehicle: saline",133 % of control
same,survivor count,"T/C endpoint: mean survival time, dose: 128.0 mg/kg/injection, schedule: Q04DX003 (ip), vehicle: saline",10 of 10
same,T/C,"T/C endpoint: mean survival time, dose: 128.0 mg/kg/injection, schedule: Q08DX002 (ip), vehicle: saline",127 % of control
same,survivor count,"T/C endpoint: mean survival time, dose: 200.0 mg/kg/injection, schedule: Q01DX009 (ip), vehicle: saline with Tween-80",1 of 6
same,survivor count,"T/C endpoint: mean survival time, dose: 256.0 mg/kg/injection, schedule: Q01DX001 (ip), vehicle: saline",3 of 10
same,T/C,"T/C endpoint: mean survival time, dose: 256.0 mg/kg/injection, schedule: Q01DX001 (oral), vehicle: saline",133 % of control
same,survivor count,"T/C endpoint: mean survival time, dose: 256.0 mg/kg/injection, schedule: Q08DX002 (ip), vehicle: saline",8 of 10
same,survivor count,"T/C endpoint: mean survival time, dose: 400.0 mg/kg/injection, schedule: Q01DX009 (ip), vehicle: saline with Tween-80",0 of 6
same,survivor count,"T/C endpoint: mean survival time, dose: 512.0 mg/kg/injection, schedule: Q01DX001 (oral), vehicle: saline",5 of 10
same,survivor count,"T/C endpoint: mean survival time, dose: 1024.0 mg/kg/injection, schedule: Q01DX001 (oral), vehicle: saline",6 of 10
same,T/C,"T/C endpoint: median survival time, dose: 0.06 mg/kg/injection, schedule: Q03HX024 (ip), vehicle: other",125 % of control [9 of 10 alive] (2×)
same,T/C,"T/C endpoint: median survival time, dose: 0.12 mg/kg/injection, schedule: Q03HX024 (ip), vehicle: other",125 % of control (2×)
same,T/C,"T/C endpoint: median survival time, dose: 0.25 mg/kg/injection, schedule: Q01DX009 (ip), vehicle: other",125 % of control (2×)
same,T/C,"T/C endpoint: median survival time, dose: 0.25 mg/kg/injection, schedule: Q01DX009 (ip), vehicle: saline with Tween-80",128 % of control
same,T/C,"T/C endpoint: median survival time, dose: 0.25 mg/kg/injection, schedule: Q03HX008 (ip), vehicle: other",125 % of control (2×)
same,T/C,"T/C endpoint: median survival time, dose: 0.25 mg/kg/injection, schedule: Q03HX024 (ip), vehicle: other",137 % of control (2×)
same,T/C,"T/C endpoint: median survival time, dose: 0.5 mg/kg/injection, schedule: Q01DX009 (ip), vehicle: other",137 % of control (2×)
same,T/C,"T/C endpoint: median survival time, dose: 0.5 mg/kg/injection, schedule: Q01DX009 (ip), vehicle: saline with Tween-80",134 % of control
same,T/C,"T/C endpoint: median survival time, dose: 0.5 mg/kg/injection, schedule: Q03HX008 (ip), vehicle: other",137 % of control (2×)
same,T/C,"T/C endpoint: median survival time, dose: 0.5 mg/kg/injection, schedule: Q03HX016 (ip), vehicle: other",131 % of control (2×)
same,T/C,"T/C endpoint: median survival time, dose: 0.5 mg/kg/injection, schedule: Q03HX024 (ip), vehicle: other",143 % of control (2×)
same,T/C,"T/C endpoint: median survival time, dose: 0.5 mg/kg/injection, schedule: Q04DX003 (ip), vehicle: other",125 % of control (2×)
same,T/C,"T/C endpoint: median survival time, dose: 1.0 mg/kg/injection, schedule: Q01DX009 (ip), vehicle: other, evaluated on day 30",134 % of control
same,T/C,"T/C endpoint: median survival time, dose: 1.0 mg/kg/injection, schedule: Q01DX009 (ip), vehicle: other, evaluated on day 60",137 % of control (2×)
same,T/C,"T/C endpoint: median survival time, dose: 1.0 mg/kg/injection, schedule: Q01DX009 (ip), vehicle: saline with Tween-80",129 and 148 % of control
same,T/C,"T/C endpoint: median survival time, dose: 1.0 mg/kg/injection, schedule: Q04DX003 (ip), vehicle: other",131 % of control (2×)
same,T/C,"T/C endpoint: median survival time, dose: 2.0 mg/kg/injection, schedule: Q01DX009 (ip), vehicle: saline with Tween-80",134 % of control
same,T/C,"T/C endpoint: median survival time, dose: 2.0 mg/kg/injection, schedule: Q01DX009 (sc), vehicle: other",131 % of control (2×)
same,T/C,"T/C endpoint: median survival time, dose: 2.0 mg/kg/injection, schedule: Q03HX024 (ip), vehicle: other",137 % of control [9 of 10 alive] (2×)
same,T/C,"T/C endpoint: median survival time, dose: 2.0 mg/kg/injection, schedule: Q04DX003 (ip), vehicle: other",137 % of control (2×)
same,T/C,"T/C endpoint: median survival time, dose: 2.0 mg/kg/injection, schedule: Q08DX002 (ip), vehicle: other",125 % of control (2×)
same,T/C,"T/C endpoint: median survival time, dose: 4.0 mg/kg/injection, schedule: Q01DX001 (ip), vehicle: other",137 % of control (2×)
same,survivor count,"T/C endpoint: median survival time, dose: 4.0 mg/kg/injection, schedule: Q03HX008 (ip), vehicle: other",6 of 10 and 6 of 9
same,survivor count,"T/C endpoint: median survival time, dose: 4.0 mg/kg/injection, schedule: Q03HX016 (ip), vehicle: other",5 of 10 (2×)
same,survivor count,"T/C endpoint: median survival time, dose: 4.0 mg/kg/injection, schedule: Q03HX024 (ip), vehicle: other",7 of 10 (2×)
same,T/C,"T/C endpoint: median survival time, dose: 4.0 mg/kg/injection, schedule: Q08DX002 (ip), vehicle: other",137 % of control (2×)
same,T/C,"T/C endpoint: median survival time, dose: 4.32 mg/kg/injection, schedule: Q04DX003 (ip), vehicle: other",139 % of control
same,T/C,"T/C endpoint: median survival time, dose: 7.2 mg/kg/injection, schedule: Q04DX003 (ip), vehicle: other",146 % of control
same,T/C,"T/C endpoint: median survival time, dose: 8.0 mg/kg/injection, schedule: Q01DX001 (ip), vehicle: other",143 % of control (2×)
same,survivor count,"T/C endpoint: median survival time, dose: 8.0 mg/kg/injection, schedule: Q03HX008 (ip), vehicle: other",0 of 10 (2×)
same,survivor count,"T/C endpoint: median survival time, dose: 8.0 mg/kg/injection, schedule: Q03HX016 (ip), vehicle: other",1 of 10 (2×)
same,T/C,"T/C endpoint: median survival time, dose: 8.0 mg/kg/injection, schedule: Q04DX003 (ip), vehicle: other",134 % of control
same,survivor count,"T/C endpoint: median survival time, dose: 16.0 mg/kg/injection, schedule: Q01DX001 (ip), vehicle: other",5 of 10
same,T/C,"T/C endpoint: median survival time, dose: 16.0 mg/kg/injection, schedule: Q01DX001 (oral), vehicle: other",125 % of control (2×)
same,T/C,"T/C endpoint: median survival time, dose: 16.0 mg/kg/injection, schedule: Q01DX001 (sc), vehicle: other",125 % of control (2×)
same,survivor count,"T/C endpoint: median survival time, dose: 16.0 mg/kg/injection, schedule: Q01DX009 (ip), vehicle: other",8 of 10 (2×)
same,T/C,"T/C endpoint: median survival time, dose: 16.0 mg/kg/injection, schedule: Q01DX009 (ip), vehicle: saline with Tween-80",139 % of control
same,survivor count,"T/C endpoint: median survival time, dose: 16.0 mg/kg/injection, schedule: Q03HX008 (ip), vehicle: other",0 of 10 (2×)
same,survivor count,"T/C endpoint: median survival time, dose: 16.0 mg/kg/injection, schedule: Q03HX016 (ip), vehicle: other",0 of 10 (2×)
same,survivor count,"T/C endpoint: median survival time, dose: 32.0 mg/kg/injection, schedule: Q01DX001 (ip), vehicle: other",4 of 10 (2×)
same,T/C,"T/C endpoint: median survival time, dose: 32.0 mg/kg/injection, schedule: Q01DX001 (oral), vehicle: other",125 % of control (2×)
same,T/C,"T/C endpoint: median survival time, dose: 32.0 mg/kg/injection, schedule: Q01DX001 (sc), vehicle: other",137 % of control (2×)
same,survivor count,"T/C endpoint: median survival time, dose: 32.0 mg/kg/injection, schedule: Q01DX009 (oral), vehicle: other",9 of 10 (2×)
same,survivor count,"T/C endpoint: median survival time, dose: 32.0 mg/kg/injection, schedule: Q08DX002 (ip), vehicle: other",5 of 10 (2×)
same,survivor count,"T/C endpoint: median survival time, dose: 64.0 mg/kg/injection, schedule: Q01DX001 (ip), vehicle: other",0 of 10 (2×)
same,survivor count,"T/C endpoint: median survival time, dose: 64.0 mg/kg/injection, schedule: Q01DX009 (oral), vehicle: other",5 of 10 (2×)
same,survivor count,"T/C endpoint: median survival time, dose: 64.0 mg/kg/injection, schedule: Q08DX002 (ip), vehicle: other",1 of 10 (2×)
same,survivor count,"T/C endpoint: median survival time, dose: 128.0 mg/kg/injection, schedule: Q01DX001 (ip), vehicle: other",0 of 10 (2×)
same,survivor count,"T/C endpoint: median survival time, dose: 128.0 mg/kg/injection, schedule: Q01DX001 (oral), vehicle: other",6 of 10 (2×)
same,survivor count,"T/C endpoint: median survival time, dose: 128.0 mg/kg/injection, schedule: Q08DX002 (ip), vehicle: other",0 of 10 (2×)
same,survivor count,"T/C endpoint: median survival time, dose: 256.0 mg/kg/injection, schedule: Q01DX001 (oral), vehicle: other",1 of 10 (2×)
same,survivor count,"T/C endpoint: median survival time, dose: 512.0 mg/kg/injection, schedule: Q01DX001 (oral), vehicle: other",0 of 10 (2×)
